The results in this text go back to article PMC13159128.

Chains of the proteins cited; added tags and fusions are not shown. Residues count along the entry.
UniProt P0C0I3, residues 34-571: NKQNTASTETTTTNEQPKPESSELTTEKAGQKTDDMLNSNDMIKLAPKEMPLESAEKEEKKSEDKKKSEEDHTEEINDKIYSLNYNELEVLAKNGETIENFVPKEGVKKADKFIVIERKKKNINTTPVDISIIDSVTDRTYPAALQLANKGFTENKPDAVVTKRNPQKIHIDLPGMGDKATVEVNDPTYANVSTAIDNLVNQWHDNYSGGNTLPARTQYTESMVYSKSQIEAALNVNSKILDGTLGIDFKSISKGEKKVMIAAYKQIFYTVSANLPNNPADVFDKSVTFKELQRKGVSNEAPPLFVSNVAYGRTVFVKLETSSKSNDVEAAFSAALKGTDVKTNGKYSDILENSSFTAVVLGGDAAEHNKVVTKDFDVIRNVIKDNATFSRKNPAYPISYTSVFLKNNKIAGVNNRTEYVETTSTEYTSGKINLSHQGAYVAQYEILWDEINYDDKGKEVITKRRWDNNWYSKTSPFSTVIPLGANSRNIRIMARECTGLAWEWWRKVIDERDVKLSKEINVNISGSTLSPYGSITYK
UniProt P13671, residues 22-934: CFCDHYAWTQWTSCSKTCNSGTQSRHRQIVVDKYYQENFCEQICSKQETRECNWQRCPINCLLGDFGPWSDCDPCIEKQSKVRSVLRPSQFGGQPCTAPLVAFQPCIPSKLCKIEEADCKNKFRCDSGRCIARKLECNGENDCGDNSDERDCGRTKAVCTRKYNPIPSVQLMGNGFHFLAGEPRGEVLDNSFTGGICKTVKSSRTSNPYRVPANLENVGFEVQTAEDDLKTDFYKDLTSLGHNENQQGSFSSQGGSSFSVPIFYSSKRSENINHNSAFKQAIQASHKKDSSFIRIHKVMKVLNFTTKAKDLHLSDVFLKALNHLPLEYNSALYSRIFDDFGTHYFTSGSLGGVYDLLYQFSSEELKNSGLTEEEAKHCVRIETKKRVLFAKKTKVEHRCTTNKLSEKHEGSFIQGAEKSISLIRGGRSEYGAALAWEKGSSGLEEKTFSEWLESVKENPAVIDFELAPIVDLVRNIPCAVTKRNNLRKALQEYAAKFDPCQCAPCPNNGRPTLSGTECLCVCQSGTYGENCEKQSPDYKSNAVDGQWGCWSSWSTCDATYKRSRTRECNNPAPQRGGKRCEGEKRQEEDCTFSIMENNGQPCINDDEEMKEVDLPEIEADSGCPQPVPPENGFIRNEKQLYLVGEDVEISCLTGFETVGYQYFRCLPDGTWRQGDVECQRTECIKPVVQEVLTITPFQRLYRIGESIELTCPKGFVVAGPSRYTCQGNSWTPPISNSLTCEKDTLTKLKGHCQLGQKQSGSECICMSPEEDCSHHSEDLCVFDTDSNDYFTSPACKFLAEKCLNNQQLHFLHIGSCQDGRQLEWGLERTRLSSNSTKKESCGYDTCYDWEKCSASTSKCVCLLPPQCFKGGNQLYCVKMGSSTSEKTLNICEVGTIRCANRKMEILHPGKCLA
UniProt P02748, residues 22-559: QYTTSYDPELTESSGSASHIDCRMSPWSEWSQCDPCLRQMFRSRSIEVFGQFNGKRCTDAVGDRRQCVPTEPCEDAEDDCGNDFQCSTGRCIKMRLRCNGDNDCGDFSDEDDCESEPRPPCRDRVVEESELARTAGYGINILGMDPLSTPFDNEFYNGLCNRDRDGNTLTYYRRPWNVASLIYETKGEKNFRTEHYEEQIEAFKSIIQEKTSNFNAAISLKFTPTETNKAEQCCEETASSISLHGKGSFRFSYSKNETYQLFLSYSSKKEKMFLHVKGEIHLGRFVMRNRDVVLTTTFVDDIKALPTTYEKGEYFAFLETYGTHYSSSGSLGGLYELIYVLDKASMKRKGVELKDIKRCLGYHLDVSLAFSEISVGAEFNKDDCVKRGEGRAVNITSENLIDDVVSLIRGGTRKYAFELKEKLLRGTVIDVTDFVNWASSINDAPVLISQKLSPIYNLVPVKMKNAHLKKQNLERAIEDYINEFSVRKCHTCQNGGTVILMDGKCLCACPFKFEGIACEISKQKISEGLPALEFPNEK
UniProt P10643, residues 23-843: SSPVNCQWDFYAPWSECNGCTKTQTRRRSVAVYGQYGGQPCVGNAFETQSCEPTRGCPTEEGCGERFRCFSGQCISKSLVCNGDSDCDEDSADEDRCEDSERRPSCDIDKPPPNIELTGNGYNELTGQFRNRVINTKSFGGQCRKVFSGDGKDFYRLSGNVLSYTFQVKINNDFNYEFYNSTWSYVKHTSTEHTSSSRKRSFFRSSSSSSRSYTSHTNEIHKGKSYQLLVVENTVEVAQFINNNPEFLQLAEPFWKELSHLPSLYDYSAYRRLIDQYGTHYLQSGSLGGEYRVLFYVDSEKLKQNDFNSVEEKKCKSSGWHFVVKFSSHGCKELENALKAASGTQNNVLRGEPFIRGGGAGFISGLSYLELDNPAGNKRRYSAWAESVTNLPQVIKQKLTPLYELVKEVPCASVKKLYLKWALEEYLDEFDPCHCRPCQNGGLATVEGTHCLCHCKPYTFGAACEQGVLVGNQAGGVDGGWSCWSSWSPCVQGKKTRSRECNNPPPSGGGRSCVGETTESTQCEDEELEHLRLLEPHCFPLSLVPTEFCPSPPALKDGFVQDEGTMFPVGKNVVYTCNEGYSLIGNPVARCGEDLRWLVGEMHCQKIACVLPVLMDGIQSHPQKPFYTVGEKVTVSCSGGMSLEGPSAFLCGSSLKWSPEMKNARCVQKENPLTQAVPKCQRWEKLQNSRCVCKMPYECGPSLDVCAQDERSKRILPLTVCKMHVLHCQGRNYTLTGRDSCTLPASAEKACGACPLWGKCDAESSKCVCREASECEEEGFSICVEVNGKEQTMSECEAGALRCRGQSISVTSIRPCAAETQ
UniProt P01591, residues 23-159: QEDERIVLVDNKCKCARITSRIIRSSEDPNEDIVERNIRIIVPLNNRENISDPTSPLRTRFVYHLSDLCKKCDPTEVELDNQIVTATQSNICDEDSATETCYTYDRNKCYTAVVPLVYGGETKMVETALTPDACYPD

This assay addresses streptolysin O (SLO), recombinant GAS M1 virulence factor (Streptococcus pyogenes (GAS) serotype M1) (UniProt P0C0I3). The assay can be described thus: affinity purification with mass spectrometry; interactome A: tagged bait immobilised on Strep-Tactin Sepharose, prey pooled human plasma (50 % v/v in PBS) or pooled, centrifuged and filtered saliva, PBS washes, elution with biotin; DIA MS, MiST score >= 0.75; GFP control bait; n = 3; only the target purified.

These are yes or no findings as the source states them, for the method shown. Binding seen in cells or lysates may run through a third protein. These calls come from enrichment with a bait or labelling near it, and not all partners need be listed.

In the case of “complement component C6 (from UniProt P13671 22-934)”, the binding result is reported as “binds”. Consider “complement component C9 (from UniProt P02748 22-559)”, for which the binding result is recorded as “binds”.

Turning to “complement component C7 (from UniProt P10643 23-843)”, the binding result was “binds”. In the case of JCHAIN (from UniProt P01591 23-159) it was “binds”.
